# Assay results published in the supplement of paper PMC7661543.
# ± gives the standard deviation of the averaged measurements. The effect of the compound repeats well; differences between the knockouts mostly do not.
# Test system: MDA-MB-231
# Assay: relative cell number vs DMSO control (72 h) (% of DMSO); higher = less growth inhibition (more cells)
# Protocol: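 QMAP-Seq: a pool of 5 breast cancer cell lines (ZR-75-1, SKBR3, HCC-38, MDA-MB-231, BT-20), each carrying 12 doxycycline-inducible Cas9 sgRNA perturbations (11 knockouts plus non-targeting sgNT), was treated with compounds for 72 h at four 10-fold doses (10 nM-10 uM or 1 nM-1 uM range). Barcodes were amplified and sequenced, and cell number was interpolated from 293T spike-in standard curves. The result is expressed as % of the median of DMSO wells. Two biological replicates.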
# [1] = sgRNA knockout: sgATF3, 1000 nM
# [2] = sgRNA knockout: sgATF3, 10000 nM
# [3] = sgRNA knockout: sgATF4, 1000 nM
# [4] = sgRNA knockout: sgATF4, 10000 nM
# [5] = sgRNA knockout: sgATF6, 1000 nM
# [6] = sgRNA knockout: sgATF6, 10000 nM
# [7] = sgRNA knockout: sgATG7, 1000 nM
# [8] = sgRNA knockout: sgATG7, 10000 nM
# [9] = sgRNA knockout: sgERN1, 1000 nM
# [10] = sgRNA knockout: sgERN1, 10000 nM
# [11] = sgRNA knockout: sgHSF1, 1000 nM
# [12] = sgRNA knockout: sgHSF1, 10000 nM
# [13] = sgRNA knockout: sgHSF2, 1000 nM
# [14] = sgRNA knockout: sgHSF2, 10000 nM
# [15] = sgRNA knockout: sgKEAP1, 100 nM
# [16] = sgRNA knockout: sgKEAP1, 1000 nM
# [17] = sgRNA knockout: sgKEAP1, 10000 nM
# [18] = sgRNA knockout: sgNFE2L2, 10 nM
# [19] = sgRNA knockout: sgNFE2L2, 100 nM
# [20] = sgRNA knockout: sgNFE2L2, 1000 nM
# [21] = sgRNA knockout: sgNFE2L2, 10000 nM
# [22] = sgRNA knockout: sgSLC35F2, 10 nM
# [23] = sgRNA knockout: sgSLC35F2, 100 nM
# [24] = sgRNA knockout: sgSLC35F2, 1000 nM
# [25] = sgRNA knockout: sgSLC35F2, 10000 nM
# [26] = sgRNA knockout: sgXBP1, 1000 nM
# [27] = sgRNA knockout: sgXBP1, 10000 nM
compound,measurement,setting,value
CN1C(=O)C(Cc2c[nH]c3ccccc23)NC1=S (stereo not drawn) [Necrostatin1],relative cell number,"sgRNA knockout: sgATF3, 10 nM",109 ± 2.9
same,relative cell number,"sgRNA knockout: sgATF3, 100 nM",92.7 ± 11
same,relative cell number,[1],94.7 ± 6.2
same,relative cell number,[2],85 ± 21
same,relative cell number,"sgRNA knockout: sgATF4, 10 nM",71.4 ± 28
same,relative cell number,"sgRNA knockout: sgATF4, 100 nM",70.9 ± 36
same,relative cell number,[3],75.7 ± 13
same,relative cell number,[4],108 ± 27
same,relative cell number,"sgRNA knockout: sgATF6, 10 nM",68 ± 28
same,relative cell number,"sgRNA knockout: sgATF6, 100 nM",66.3 ± 12
same,relative cell number,[5],62.8 ± 0.43
same,relative cell number,[6],89.2 ± 21
same,relative cell number,"sgRNA knockout: sgATG7, 10 nM",90.1 ± 4.6
same,relative cell number,"sgRNA knockout: sgATG7, 100 nM",87.2 ± 10
same,relative cell number,[7],98.1 ± 53
same,relative cell number,[8],79.2 ± 5.9
same,relative cell number,"sgRNA knockout: sgERN1, 10 nM",112 ± 8.4
same,relative cell number,"sgRNA knockout: sgERN1, 100 nM",94 ± 25
same,relative cell number,[9],94.5 ± 5
same,relative cell number,[10],80 ± 33
same,relative cell number,"sgRNA knockout: sgHSF1, 10 nM",92 ± 9.3
same,relative cell number,"sgRNA knockout: sgHSF1, 100 nM",72.6 ± 11
same,relative cell number,[11],82.1 ± 18
same,relative cell number,[12],82.7 ± 24
same,relative cell number,"sgRNA knockout: sgHSF2, 10 nM",97.2 ± 14
same,relative cell number,"sgRNA knockout: sgHSF2, 100 nM",94.9 ± 12
same,relative cell number,[13],81.6 ± 9.9
same,relative cell number,[14],74.1 ± 23
same,relative cell number,"sgRNA knockout: sgKEAP1, 10 nM",97.1 ± 23
same,relative cell number,[15],78.85 ± 0.39
same,relative cell number,[16],83.1 ± 18
same,relative cell number,[17],73.1 ± 13
same,relative cell number,[18],113 ± 29
same,relative cell number,[19],92.7 ± 24
same,relative cell number,[20],71.4 ± 22
same,relative cell number,[21],90.2 ± 14
same,relative cell number,[22],72.9 ± 3.8
same,relative cell number,[23],82.2 ± 25
same,relative cell number,[24],88.4 ± 10
same,relative cell number,[25],78.6 ± 16
same,relative cell number,"sgRNA knockout: sgXBP1, 10 nM",83.7 ± 24
same,relative cell number,"sgRNA knockout: sgXBP1, 100 nM",73.2 ± 33
same,relative cell number,[26],77.2 ± 21
same,relative cell number,[27],68.7 ± 2.7
FC(F)c1nc2ccccc2n1-c1nc(N2CCOCC2)nc(N2CCOCC2)n1 [ZSTK474],relative cell number,"sgRNA knockout: sgATF3, 10 nM",108 ± 34
same,relative cell number,"sgRNA knockout: sgATF3, 100 nM",82.52 ± 0.24
same,relative cell number,[1],81.6 ± 3.1
same,relative cell number,[2],59.4 ± 9.2
same,relative cell number,"sgRNA knockout: sgATF4, 10 nM",101 ± 78
same,relative cell number,"sgRNA knockout: sgATF4, 100 nM",120 ± 3.6
same,relative cell number,[3],81.2 ± 8.9
same,relative cell number,[4],66.8 ± 9
same,relative cell number,"sgRNA knockout: sgATF6, 10 nM",108 ± 13
same,relative cell number,"sgRNA knockout: sgATF6, 100 nM",115 ± 4
same,relative cell number,[5],81.9 ± 15
same,relative cell number,[6],76.4 ± 6.5
same,relative cell number,"sgRNA knockout: sgATG7, 10 nM",90.3 ± 12
same,relative cell number,"sgRNA knockout: sgATG7, 100 nM",99.39 ± 0.25
same,relative cell number,[7],81 ± 7.5
same,relative cell number,[8],75.2 ± 4.6
same,relative cell number,"sgRNA knockout: sgERN1, 10 nM",80.9 ± 8.8
same,relative cell number,"sgRNA knockout: sgERN1, 100 nM",115 ± 1.8
same,relative cell number,[9],88.2 ± 9.4
same,relative cell number,[10],63.4 ± 18
same,relative cell number,"sgRNA knockout: sgHSF1, 10 nM",94.4 ± 33
same,relative cell number,"sgRNA knockout: sgHSF1, 100 nM",90 ± 21
same,relative cell number,[11],70 ± 21
same,relative cell number,[12],67.6 ± 4.1
same,relative cell number,"sgRNA knockout: sgHSF2, 10 nM",82.8 ± 12
same,relative cell number,"sgRNA knockout: sgHSF2, 100 nM",111 ± 25
same,relative cell number,[13],77.5 ± 8.7
same,relative cell number,[14],62.4 ± 2.2
same,relative cell number,"sgRNA knockout: sgKEAP1, 10 nM",100 ± 15
same,relative cell number,[15],122 ± 8.7
same,relative cell number,[16],96.9 ± 4.8
same,relative cell number,[17],61.2 ± 13
same,relative cell number,[18],92 ± 12
same,relative cell number,[19],96.9 ± 3.2
same,relative cell number,[20],67.25 ± 0.17
same,relative cell number,[21],62.5 ± 26
same,relative cell number,[22],71.3 ± 6
same,relative cell number,[23],78.2 ± 11
same,relative cell number,[24],82.5 ± 20
same,relative cell number,[25],67.7 ± 20
same,relative cell number,"sgRNA knockout: sgXBP1, 10 nM",112 ± 10
same,relative cell number,"sgRNA knockout: sgXBP1, 100 nM",115 ± 21
same,relative cell number,[26],84.8 ± 23
same,relative cell number,[27],58.8 ± 2.3

# Two records drawn at random from those above, as already listed:
compound,measurement,setting,value
FC(F)c1nc2ccccc2n1-c1nc(N2CCOCC2)nc(N2CCOCC2)n1 [ZSTK474],relative cell number,[6],76.4 ± 6.5
same,relative cell number,"sgRNA knockout: sgERN1, 10 nM",80.9 ± 8.8
